Assay results as given in patent publication US20230002492A1.
No constants are given. Whether binding was seen depends on the method and setting. Some entries that bind do so weakly or less than the wild type.

Chains of the proteins cited; added tags and fusions are not shown. Lines headed by an entry give the natural chain unless they say otherwise; changes in a name come on top. Residues count along the entry.
UniProt Q9NZQ7: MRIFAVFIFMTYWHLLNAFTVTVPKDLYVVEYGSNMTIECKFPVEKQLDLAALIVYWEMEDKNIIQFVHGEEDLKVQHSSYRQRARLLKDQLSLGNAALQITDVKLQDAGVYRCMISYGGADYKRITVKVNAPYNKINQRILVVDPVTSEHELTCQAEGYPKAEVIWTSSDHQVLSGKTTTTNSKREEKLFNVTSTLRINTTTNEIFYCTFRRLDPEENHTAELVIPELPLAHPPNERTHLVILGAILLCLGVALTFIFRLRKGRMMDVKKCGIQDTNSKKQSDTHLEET
PD-L1 on the surface of CHO-PD-L1 cells: residues 19-290 of Q9NZQ7
recombinant human PD-L1-His (Novoprotein, Cat. 315): residues 19-239 of Q9NZQ7

B1: PDL1-50 (antibody, V domains shown)
VH: EVQLQESGGDLVKPGGSLKLSCAASGFTFNTYGMSWVRQTPDKRLEWVATLSSGGSYTYYSESVKGRFTISRDNAKNTLYLQMTSLKSEDTAIYYCARPTADWHLDVWGTGTTVTVSS
VL: DIQMTQSPSSLSASLGGKVTITCKASQDINKYIAWYQHKPGKGPRLLIHYTSTLQPGIPSRFSGSGSGRDYSFSISNLEPEDIATYYCLQHDNLLFTFGSGTKLEIK
B2: PDL1-156 (antibody, V domains shown)
VH: EVQLQESGPELVKPGASVKISCKASGYTFTDYYMNWVRQSHGKSLEWIGDINPNNGDTSYNQKFKGKATLTVDKSSSTAYMDLRSLTSEDSAVYYCASSVMDYWGQGTTVTVSS
VL: DIVLTQSPALMSASPGEKVTMTCSASSSVNYVYWYQQKPRSSPKPWIYLTFNLASGVPARFSGSGSGTSYSLTISSMEAEDAATYYCQQWSSNPLTFGAGTKLEIK
B3: PDL1-370 (antibody, V domains shown)
VH: EVQLQESGPGLAKPSQTLSLTCSVTGYSITSDYWNWIRKFPGNKLEYMGYISYTGSTYYNPSLKSRISIARDTSRNQYYLQLNSVTTEDSATYYCARAGGWLLPFAVWGTGTTVTVSS
VL: DIVITQSPSSLAVSVGEKVTMSCKSSQSLLYSSNQQNSLAWYQQKPGQSPILLIYWASTRESGVPDRFTGGGSGTDFTLTISSVRAEDLAVYYCQQYYNYPWTFGGGTKLEIK

Assays:
[1] = molecular target: recombinant human PD-L1-His (Novoprotein, Cat. 315) (human) (UniProt Q9NZQ7); test: SPR, Biacore T200
[2] = molecular target: PD-L1 on the surface of CHO-PD-L1 cells (UniProt Q9NZQ7); test: flow cytometry on CHO-PD-L1 cells, anti-human IgG PE

| Binder | binding [1] | binding [2] |
| --- | --- | --- |
| B1 | binds | – |
| B2 | – | binds |
| B3 | – | binds |
